# From the M2OR odorant receptor database
# The entries are a selection whose mix differs from that of the whole data set. The calls were merged from several studies; some rest on single wells. The list shows a part of the results.
# Experiments:
# Conditions in all cases: stereoisomer not certain
# OR5T1 (Homo sapiens) = target: T1, OR5T1 (Homo sapiens) (UniProt Q8NG75)
# T1 sequence (whole entry): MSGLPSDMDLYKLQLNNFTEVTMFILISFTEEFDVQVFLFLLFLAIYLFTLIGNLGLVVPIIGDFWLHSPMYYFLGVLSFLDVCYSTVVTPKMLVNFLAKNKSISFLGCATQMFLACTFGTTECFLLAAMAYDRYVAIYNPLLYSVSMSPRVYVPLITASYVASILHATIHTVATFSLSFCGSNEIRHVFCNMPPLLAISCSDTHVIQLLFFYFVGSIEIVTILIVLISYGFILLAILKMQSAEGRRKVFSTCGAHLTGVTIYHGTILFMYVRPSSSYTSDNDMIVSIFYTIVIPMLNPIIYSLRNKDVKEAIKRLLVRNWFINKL
# Outline: (§1)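 Transient luciferase assays in mammalian cell lines were common, though methods varied by source. The values come from published papers and their supplementary material, with extra details from the original authors when needed. Responsive refers to a measured signal the original authors judged statistically different from baseline, and non-responsive (inactive) to the remainder.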
# OR5T1 = system: T2, OR5T1
# T2 sequence (whole entry): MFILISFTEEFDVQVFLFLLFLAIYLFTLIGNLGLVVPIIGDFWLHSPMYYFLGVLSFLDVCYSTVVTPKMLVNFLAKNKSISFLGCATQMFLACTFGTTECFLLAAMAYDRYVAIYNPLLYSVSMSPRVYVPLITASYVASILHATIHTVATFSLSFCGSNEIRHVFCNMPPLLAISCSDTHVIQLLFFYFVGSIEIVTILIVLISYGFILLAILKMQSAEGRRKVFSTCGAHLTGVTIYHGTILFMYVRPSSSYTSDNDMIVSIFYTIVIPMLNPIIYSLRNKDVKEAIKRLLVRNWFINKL
# Outline: as §1
# OR5T2 [1] = system: T3, OR5T2
# T3 sequence (whole entry): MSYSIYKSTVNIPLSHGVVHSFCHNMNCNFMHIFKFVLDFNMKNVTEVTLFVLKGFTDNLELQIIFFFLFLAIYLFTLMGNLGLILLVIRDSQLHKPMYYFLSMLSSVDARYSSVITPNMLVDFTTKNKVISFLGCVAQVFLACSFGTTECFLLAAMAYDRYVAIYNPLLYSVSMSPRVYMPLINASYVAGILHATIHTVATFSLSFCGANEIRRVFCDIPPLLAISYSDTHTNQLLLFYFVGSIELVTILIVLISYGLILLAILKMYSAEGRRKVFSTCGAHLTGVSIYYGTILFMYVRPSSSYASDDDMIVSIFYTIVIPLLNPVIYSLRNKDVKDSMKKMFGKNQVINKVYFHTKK
# Outline: as §1
# OR5T2 [2] = system: T4, OR5T2; remark: listed apart in the source
# T4 sequence (whole entry): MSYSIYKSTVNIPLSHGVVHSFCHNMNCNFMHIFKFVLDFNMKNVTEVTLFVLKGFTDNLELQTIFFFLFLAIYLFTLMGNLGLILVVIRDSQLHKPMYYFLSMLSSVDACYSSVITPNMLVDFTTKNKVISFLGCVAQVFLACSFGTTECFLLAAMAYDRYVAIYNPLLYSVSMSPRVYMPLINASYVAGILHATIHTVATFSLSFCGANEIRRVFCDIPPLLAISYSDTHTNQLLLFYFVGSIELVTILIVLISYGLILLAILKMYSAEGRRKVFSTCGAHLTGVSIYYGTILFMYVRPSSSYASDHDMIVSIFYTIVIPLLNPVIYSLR
# Outline: as §1
# OR5T3 = system: T5, OR5T3
# T5 sequence (whole entry): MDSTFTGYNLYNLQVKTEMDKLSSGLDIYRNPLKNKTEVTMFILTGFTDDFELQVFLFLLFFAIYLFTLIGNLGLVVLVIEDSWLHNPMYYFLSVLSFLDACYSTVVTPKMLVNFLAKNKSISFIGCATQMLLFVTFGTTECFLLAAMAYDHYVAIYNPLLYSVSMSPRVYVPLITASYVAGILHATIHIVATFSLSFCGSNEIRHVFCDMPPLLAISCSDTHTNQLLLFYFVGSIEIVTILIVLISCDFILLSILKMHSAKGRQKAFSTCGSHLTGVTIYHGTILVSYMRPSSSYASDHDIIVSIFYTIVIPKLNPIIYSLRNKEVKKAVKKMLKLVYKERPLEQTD
# Outline: as §1
# OR5V1 (Homo sapiens) = target: T6, OR5V1 (Homo sapiens) (UniProt Q9UGF6)
# T6 sequence (whole entry): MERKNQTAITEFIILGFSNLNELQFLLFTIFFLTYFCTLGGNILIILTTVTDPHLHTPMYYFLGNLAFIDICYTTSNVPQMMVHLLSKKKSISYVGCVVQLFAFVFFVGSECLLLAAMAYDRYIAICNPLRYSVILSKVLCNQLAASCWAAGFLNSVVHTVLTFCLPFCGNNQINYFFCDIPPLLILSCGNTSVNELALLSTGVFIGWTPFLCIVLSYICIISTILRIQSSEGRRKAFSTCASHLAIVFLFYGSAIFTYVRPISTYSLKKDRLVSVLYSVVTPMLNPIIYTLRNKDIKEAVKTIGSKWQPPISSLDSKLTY
# Outline: as §1
# OR5W2 = system: T7, OR5W2
# T7 sequence (whole entry): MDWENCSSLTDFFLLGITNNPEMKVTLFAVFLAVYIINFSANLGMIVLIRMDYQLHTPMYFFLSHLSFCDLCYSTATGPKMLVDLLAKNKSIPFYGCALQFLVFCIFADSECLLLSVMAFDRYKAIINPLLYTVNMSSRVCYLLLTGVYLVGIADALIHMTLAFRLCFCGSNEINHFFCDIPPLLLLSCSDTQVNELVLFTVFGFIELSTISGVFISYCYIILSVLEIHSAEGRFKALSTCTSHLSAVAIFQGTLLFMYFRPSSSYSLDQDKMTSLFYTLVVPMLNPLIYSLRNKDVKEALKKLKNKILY
# Outline: as §1
# OR6A2 (Homo sapiens) = target: T8, OR6A2 (Homo sapiens) (UniProt O95222)
# T8 sequence (whole entry): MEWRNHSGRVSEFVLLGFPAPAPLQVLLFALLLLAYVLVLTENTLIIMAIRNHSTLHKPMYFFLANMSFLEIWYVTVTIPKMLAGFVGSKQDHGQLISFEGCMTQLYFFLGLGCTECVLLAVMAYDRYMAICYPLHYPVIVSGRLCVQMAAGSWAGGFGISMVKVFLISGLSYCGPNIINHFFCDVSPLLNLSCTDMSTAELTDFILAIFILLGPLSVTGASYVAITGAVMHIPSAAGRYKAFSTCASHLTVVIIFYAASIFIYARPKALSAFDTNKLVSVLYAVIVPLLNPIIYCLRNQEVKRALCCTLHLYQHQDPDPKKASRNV
# Outline: as §1
# OR6B1 = system: T9, OR6B1
# T9 sequence (whole entry): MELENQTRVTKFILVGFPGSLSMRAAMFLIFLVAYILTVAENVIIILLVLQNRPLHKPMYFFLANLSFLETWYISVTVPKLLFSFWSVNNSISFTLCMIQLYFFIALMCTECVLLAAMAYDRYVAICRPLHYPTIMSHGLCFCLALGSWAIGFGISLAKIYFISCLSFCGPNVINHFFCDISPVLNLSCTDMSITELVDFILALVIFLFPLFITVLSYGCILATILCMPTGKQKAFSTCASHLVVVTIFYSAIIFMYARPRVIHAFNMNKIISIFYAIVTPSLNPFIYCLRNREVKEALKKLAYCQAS
# Outline: as §1
# OR6B2 = system: T10, OR6B2
# T10 sequence (whole entry): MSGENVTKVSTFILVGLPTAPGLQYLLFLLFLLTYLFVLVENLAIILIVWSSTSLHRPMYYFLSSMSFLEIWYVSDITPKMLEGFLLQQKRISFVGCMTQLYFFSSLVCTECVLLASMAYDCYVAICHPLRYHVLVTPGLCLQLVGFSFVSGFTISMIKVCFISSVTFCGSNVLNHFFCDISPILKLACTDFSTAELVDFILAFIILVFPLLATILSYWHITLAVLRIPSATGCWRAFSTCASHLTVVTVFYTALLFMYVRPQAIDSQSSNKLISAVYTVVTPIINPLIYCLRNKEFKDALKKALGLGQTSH
# Outline: as §1
# OR6B3 = system: T11, OR6B3
# T11 sequence (whole entry): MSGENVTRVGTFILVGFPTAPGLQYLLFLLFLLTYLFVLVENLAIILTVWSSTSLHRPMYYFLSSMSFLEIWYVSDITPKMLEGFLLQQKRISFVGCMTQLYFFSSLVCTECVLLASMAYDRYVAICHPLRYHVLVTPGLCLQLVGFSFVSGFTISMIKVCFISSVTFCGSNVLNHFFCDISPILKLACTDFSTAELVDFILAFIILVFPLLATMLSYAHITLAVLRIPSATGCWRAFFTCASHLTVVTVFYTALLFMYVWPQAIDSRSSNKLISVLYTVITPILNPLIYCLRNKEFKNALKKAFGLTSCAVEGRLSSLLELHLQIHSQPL
# Outline: as §1
# OR6C1 = system: T12, OR6C1
# T12 sequence (whole entry): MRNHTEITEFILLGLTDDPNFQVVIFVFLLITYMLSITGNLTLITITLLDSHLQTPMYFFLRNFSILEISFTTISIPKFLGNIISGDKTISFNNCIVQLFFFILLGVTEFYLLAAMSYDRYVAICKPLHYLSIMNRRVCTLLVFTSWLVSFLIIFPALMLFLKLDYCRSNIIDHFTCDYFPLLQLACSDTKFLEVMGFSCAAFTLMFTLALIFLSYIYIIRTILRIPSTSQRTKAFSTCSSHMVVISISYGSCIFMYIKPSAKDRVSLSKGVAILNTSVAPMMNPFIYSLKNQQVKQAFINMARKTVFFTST
# Outline: as §1
# OR6C2 (Homo sapiens) = target: T13, OR6C2 (Homo sapiens) (UniProt Q9NZP2)
# T13 sequence (whole entry): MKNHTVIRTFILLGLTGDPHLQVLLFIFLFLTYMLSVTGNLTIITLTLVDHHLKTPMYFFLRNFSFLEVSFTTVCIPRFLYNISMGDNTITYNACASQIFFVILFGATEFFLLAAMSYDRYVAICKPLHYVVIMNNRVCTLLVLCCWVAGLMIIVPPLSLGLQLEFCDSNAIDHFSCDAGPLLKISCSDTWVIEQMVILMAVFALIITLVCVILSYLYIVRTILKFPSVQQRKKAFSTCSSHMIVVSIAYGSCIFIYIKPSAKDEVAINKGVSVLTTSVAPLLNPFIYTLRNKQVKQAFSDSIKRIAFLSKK
# Outline: as §1
# OR6C3 (Homo sapiens) = target: T14, OR6C3 (Homo sapiens) (UniProt Q9NZP0)
# T14 sequence (whole entry): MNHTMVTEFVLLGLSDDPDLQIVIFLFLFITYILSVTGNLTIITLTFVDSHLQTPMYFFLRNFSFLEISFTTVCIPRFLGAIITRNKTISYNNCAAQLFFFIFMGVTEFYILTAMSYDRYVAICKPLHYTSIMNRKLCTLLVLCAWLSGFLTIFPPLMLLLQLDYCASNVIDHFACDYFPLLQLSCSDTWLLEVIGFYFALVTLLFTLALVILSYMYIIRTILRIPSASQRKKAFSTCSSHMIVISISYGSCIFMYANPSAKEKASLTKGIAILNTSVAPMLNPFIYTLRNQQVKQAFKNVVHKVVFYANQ
# Outline: as §1
# 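Further: active if original authors judged signal statistically different from baseline.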
SMILES,odorant receptor agonist call (OR5T1 (Homo sapiens)),odorant receptor agonist call (OR5T1),odorant receptor agonist call (OR5T2 [1]),odorant receptor agonist call (OR5T2 [2]),odorant receptor agonist call (OR5T3),odorant receptor agonist call (OR5V1 (Homo sapiens)),odorant receptor agonist call (OR5W2),odorant receptor agonist call (OR6A2 (Homo sapiens)),odorant receptor agonist call (OR6B1),odorant receptor agonist call (OR6B2),odorant receptor agonist call (OR6B3),odorant receptor agonist call (OR6C1),odorant receptor agonist call (OR6C2 (Homo sapiens)),odorant receptor agonist call (OR6C3 (Homo sapiens))
COc1cc(C)ccc1O,inactive,inactive,inactive,inactive,inactive,inactive,inactive,inactive,inactive,inactive,inactive,inactive,inactive,inactive
CC1COCc2cc3c(cc21)C(C)(C)C(C)C3(C)C (configuration not stated),active,active,active,active,active,inactive,active,active,inactive,active,active,active,active,active
CCCCO,inactive,inactive,inactive,inactive,inactive,inactive,inactive,inactive,inactive,inactive,inactive,inactive,inactive,inactive
